In publication PMC9187738:
Changes are numbered by the printed parent chain. In names and notes the source's numbering stands. Results are given in words; binding and its absence hold for the method and conditions named. Some results given as binding are weak or reduced against the parent protein; the word gives no strength. For some of these results: Where a sequence is shown, tags or fusion partners need not be part of it. Each block holds one binder with its values, some of them ahead of it.

Experiments:
[1] = biological target: T1, mouse E-cadherin-GFP (mouse), P09803; assay: live imaging-based adhesion molecule (LIAM) assay; BHK cells expressing E-cadherin-GFP (no inducible system); time-lapse confocal imaging; accumulation at the contact interface of adjacent expressing cells; conditions: remark: other sources report otherwise
T1 chain: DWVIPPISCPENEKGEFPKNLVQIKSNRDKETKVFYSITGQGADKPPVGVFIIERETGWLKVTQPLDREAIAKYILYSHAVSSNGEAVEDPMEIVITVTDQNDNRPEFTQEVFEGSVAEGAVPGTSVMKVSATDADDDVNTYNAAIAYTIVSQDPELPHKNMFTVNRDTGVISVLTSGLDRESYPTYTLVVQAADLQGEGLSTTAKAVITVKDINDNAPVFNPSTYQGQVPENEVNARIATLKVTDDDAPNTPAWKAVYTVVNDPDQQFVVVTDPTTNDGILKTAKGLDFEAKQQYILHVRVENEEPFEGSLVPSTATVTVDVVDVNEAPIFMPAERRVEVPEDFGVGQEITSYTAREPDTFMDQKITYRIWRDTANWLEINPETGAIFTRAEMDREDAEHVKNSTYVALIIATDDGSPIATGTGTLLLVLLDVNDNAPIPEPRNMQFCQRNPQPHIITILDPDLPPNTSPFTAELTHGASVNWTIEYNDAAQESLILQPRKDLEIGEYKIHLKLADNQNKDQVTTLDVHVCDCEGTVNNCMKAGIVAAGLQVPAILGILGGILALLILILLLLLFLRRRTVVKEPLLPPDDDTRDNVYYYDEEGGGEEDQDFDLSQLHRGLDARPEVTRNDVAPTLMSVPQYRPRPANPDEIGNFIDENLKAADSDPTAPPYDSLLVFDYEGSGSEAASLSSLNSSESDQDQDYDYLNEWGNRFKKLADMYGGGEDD

[2] = biological target: T2, mouse mCherry-JUNO (mouse) (UniProt Q9EQF4); assay: live imaging-based adhesion molecule (LIAM) assay; BHK cells, non-inducible expression (cytomegalovirus promoter); separately transfected cells mixed in equal amounts 4 h after transfection, incubated 20 h, imaged every 6 min for 12 h at 40x, 37 °C, 5% CO2; read-outs: accumulation at the cell interface and translocation to the opposite cell, % of contacting cell pairs
T2 sequence: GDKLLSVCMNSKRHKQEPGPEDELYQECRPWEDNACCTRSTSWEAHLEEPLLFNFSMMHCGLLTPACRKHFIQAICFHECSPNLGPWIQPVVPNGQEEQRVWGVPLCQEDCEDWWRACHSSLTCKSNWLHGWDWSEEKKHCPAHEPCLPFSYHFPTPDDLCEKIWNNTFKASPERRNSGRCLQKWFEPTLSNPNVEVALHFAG

[3] = biological target: T3, mCherry-W62A JUNO (mouse mutant JUNO W62A) (mouse) (UniProt Q9EQF4); assay: as above
T3 sequence: T2 sequence with W43A

B1: mouse E-cadherin-GFP, P09803 157-884 (protein)
chain: T1 chain
binding [1]: binds

B4: mouse IZUMO1-Venus (protein, UniProt Q9D9J7 22-397)
chain: CIKCDQFVTDALKTFENTYLNDHLPHDIHKNVMRMVNHEVSSFGVVTSAEDSYLGAVDENTLEQATWSFLKDLKRITDSDLKGELFIKELLWMLRHQKDIFNNLARQFQKEVLCPNKCGVMSQTLIWCLKCEKQLHICRKSLDCGERHIEVHRSEDLVLDCLLSWHRASKGLTDYSFYRVWENSSETLIAKGKEPYLTKSMVGPEDAGNYRCVLDTINQGHATVIRYDVTVLPPKHSEENQPPNIITQEEHETPVHVTPQTPPGQEPESELYPELHPELYPELIPTVAQNPEKKMKTRLLILLTLGFVVLVASIIISVLHFRKVSAKLKNASDEVKPTASGSKSDQSLSQQMGLKKASQADFNSDYSGDKSEATEN
binding [3]: no binding

Continued, values first:

binding [2]: no binding
B2: mouse SPACA6 (protein, UniProt E9Q8Q8 42-339)
chain: CLFCFTTYEERLRVCQLFVGREETKINLCRNELEGAFEDLKDMKINYDERSYLHDEFTQMTVSLQEKAARRREPFWLAFKDAAAKLKRTIEHLKKAPACIPPCGLQEVARLFHCSGCFSKLCDLPLDCPVQDMLVNRGDQALFSCIVAFELPESEITYSWKFVGGVRTKDVTYFRDMPGAHGYLARIRPVQPKHGGTFSCVILHDQRPLARLYFYLNVTGPPPPEDTELQVTFREVMNRTPAEPEMIQPWSPSLGELLTNPQALTLGNLFLLAATAALGSASVTLLVWLFFRWYLSGN

binding [2]: no binding
B3: W148A IZUMO-Venus (mouse mutant IZUMO1 W148A) (protein, UniProt Q9D9J7 22-397)
chain: B4 chain with W127A
